Measured values published in paper PMC8964741.
Results are given in words; binding and its absence hold for the method and conditions named. Binding seen in cells or lysates may run through a third protein. Here binding means that the protein was enriched with, or labelled near, the bait; the list need not be complete. Where a sequence is shown, tags or fusion partners need not be part of it.

Sequences of proteins named here, by UniProt entry; tags and fusion partners are left off.
UniProt Q02880: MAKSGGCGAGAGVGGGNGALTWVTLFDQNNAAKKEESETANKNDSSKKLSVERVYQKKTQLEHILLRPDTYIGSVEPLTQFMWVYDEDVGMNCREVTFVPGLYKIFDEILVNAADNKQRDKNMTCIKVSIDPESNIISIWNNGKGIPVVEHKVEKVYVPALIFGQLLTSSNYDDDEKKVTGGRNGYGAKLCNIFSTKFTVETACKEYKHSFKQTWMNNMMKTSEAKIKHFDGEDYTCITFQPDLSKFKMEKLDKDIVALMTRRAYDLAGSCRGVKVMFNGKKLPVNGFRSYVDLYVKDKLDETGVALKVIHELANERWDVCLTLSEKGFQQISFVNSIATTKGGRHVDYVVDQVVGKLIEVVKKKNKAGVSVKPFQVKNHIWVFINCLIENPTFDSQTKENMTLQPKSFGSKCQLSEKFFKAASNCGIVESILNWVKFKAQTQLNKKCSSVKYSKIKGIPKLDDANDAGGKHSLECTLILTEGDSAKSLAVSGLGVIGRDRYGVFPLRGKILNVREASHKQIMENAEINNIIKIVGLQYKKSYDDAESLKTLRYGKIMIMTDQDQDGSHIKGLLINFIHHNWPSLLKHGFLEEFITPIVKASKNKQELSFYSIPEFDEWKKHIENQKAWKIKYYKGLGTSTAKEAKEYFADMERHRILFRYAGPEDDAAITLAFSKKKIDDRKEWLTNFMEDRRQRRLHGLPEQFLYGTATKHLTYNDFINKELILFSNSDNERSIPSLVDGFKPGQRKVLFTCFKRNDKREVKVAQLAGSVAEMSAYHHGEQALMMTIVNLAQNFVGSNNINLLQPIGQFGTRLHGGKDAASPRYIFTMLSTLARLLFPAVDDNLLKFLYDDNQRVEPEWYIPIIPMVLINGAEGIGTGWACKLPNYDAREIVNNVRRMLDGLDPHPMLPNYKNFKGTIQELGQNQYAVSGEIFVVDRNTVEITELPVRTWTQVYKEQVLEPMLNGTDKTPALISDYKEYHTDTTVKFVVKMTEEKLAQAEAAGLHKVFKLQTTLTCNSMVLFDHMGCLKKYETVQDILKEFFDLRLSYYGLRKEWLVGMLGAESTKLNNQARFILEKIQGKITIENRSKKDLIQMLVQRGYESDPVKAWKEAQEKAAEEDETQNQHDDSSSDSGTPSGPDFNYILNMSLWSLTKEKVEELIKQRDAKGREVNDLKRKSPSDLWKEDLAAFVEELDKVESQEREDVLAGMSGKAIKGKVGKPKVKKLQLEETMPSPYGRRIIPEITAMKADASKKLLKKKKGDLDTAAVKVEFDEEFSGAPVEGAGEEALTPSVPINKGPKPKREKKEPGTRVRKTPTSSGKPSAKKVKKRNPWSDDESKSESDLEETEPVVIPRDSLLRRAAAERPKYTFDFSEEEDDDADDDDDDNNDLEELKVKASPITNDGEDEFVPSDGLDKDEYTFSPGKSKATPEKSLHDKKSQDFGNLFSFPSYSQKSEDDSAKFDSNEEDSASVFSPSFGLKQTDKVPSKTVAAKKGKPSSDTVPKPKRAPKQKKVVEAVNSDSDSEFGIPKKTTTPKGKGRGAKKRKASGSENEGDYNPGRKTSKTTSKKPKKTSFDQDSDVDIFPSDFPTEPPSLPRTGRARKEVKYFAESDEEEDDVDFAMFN

T1: SBP-Flag-ACOX2 (acyl-CoA oxidase 2) (UniProt Q99424)
T1 sequence: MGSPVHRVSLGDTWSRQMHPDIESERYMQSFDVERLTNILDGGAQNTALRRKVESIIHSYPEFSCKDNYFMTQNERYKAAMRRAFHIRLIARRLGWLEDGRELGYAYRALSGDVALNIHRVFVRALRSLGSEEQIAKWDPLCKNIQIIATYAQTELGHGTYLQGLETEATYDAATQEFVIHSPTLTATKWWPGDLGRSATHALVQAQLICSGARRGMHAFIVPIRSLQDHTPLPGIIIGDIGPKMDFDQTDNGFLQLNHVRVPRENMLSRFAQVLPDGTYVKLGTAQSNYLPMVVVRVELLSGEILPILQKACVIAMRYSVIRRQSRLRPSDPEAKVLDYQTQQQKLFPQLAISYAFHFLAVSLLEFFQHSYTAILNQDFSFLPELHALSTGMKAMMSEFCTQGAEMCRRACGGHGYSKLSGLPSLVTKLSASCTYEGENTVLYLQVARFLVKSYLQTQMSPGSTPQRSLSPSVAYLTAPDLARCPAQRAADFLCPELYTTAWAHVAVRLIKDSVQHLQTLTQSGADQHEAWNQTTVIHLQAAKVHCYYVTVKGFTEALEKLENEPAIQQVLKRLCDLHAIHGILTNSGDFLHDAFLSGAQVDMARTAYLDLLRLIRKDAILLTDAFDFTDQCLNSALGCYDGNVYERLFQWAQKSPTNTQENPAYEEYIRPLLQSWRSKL

B1: propionyl-CoA carboxylase subunit alpha (PCCA) (enzyme, UniProt P05165 53-728)
chain: SVGYDPNEKTFDKILVANRGEIACRVIRTCKKMGIKTVAIHSDVDASSVHVKMADEAVCVGPAPTSKSYLNMDAIMEAIKKTRAQAVHPGYGFLSENKEFARCLAAEDVVFIGPDTHAIQAMGDKIESKLLAKKAEVNTIPGFDGVVKDAEEAVRIAREIGYPVMIKASAGGGGKGMRIAWDDEETRDGFRLSSQEAASSFGDDRLLIEKFIDNPRHIEIQVLGDKHGNALWLNERECSIQRRNQKVVEEAPSIFLDAETRRAMGEQAVALARAVKYSSAGTVEFLVDSKKNFYFLEMNTRLQVEHPVTECITGLDLVQEMIRVAKGYPLRHKQADIRINGWAVECRVYAEDPYKSFGLPSIGRLSQYQEPLHLPGVRVDSGIQPGSDISIYYDPMISKLITYGSDRTEALKRMADALDNYVIRGVTHNIALLREVIINSRFVKGDISTKFLSDVYPDGFKGHMLTKSEKNQLLAIASSLFVAFQLRAQHFQENSRMPVIKPDIANWELSVKLHDKVHTVVASNNGSVFSVEVDGSKLNVTSTWNLASPLLSVSVDGTQRTVQCLSREAGGNMSIQFLGTVYKVNILTRLAAELNKFMLEKVTEDTSSVLRSPMPGVVVAVSVKPGDAVAEGQEICVIEAMKMQNSMTAGKTGTVKSVHCQAGDTVGEGDLLVELE
B2: propionyl-CoA carboxylase subunit beta (PCCB) (enzyme, UniProt P05166 29-539)
chain: CSQATSVNERIENKRRTALLGGGQRRIDAQHKRGKLTARERISLLLDPGSFVESDMFVEHRCADFGMAADKNKFPGDSVVTGRGRINGRLVYVFSQDFTVFGGSLSGAHAQKICKIMDQAITVGAPVIGLNDSGGARIQEGVESLAGYADIFLRNVTASGVIPQISLIMGPCAGGAVYSPALTDFTFMVKDTSYLFITGPDVVKSVTNEDVTQEELGGAKTHTTMSGVAHRAFENDVDALCNLRDFFNYLPLSSQDPAPVRECHDPSDRLVPELDTIVPLESTKAYNMVDIIHSVVDEREFFEIMPNYAKNIIVGFARMNGRTVGIVGNQPKVASGCLDINSSVKGARFVRFCDAFNIPLITFVDVPGFLPGTAQEYGGIIRHGAKLLYAFAEATVPKVTVITRKAYGGAYDVMSSKHLCGDTNYAWPTAEIAVMGAKGAVEIIFKGHENVEAAQAEYIEKFANPFPAAVRGFVDDIIQPSSTRARICCDLDVLASKKVQRPWRKHANIPL
B3: methylcrotonoyl-CoA carboxylase beta chain (MCCB), endogenous (enzyme, UniProt Q9HCC0 23-563)
chain: YHGDSVASLGTQPDLGSALYQENYKQMKALVNQLHERVEHIKLGGGEKARALHISRGKLLPRERIDNLIDPGSPFLELSQFAGYQLYDNEEVPGGGIITGIGRVSGVECMIIANDATVKGGAYYPVTVKKQLRAQEIAMQNRLPCIYLVDSGGAYLPRQADVFPDRDHFGRTFYNQAIMSSKNIAQIAVVMGSCTAGGAYVPAMADENIIVRKQGTIFLAGPPLVKAATGEEVSAEDLGGADLHCRKSGVSDHWALDDHHALHLTRKVVRNLNYQKKLDVTIEPSEEPLFPADELYGIVGANLKRSFDVREVIARIVDGSRFTEFKAFYGDTLVTGFARIFGYPVGIVGNNGVLFSESAKKGTHFVQLCCQRNIPLLFLQNITGFMVGREYEAEGIAKDGAKMVAAVACAQVPKITLIIGGSYGAGNYGMCGRAYSPRFLYIWPNARISVMGGEQAANVLATITKDQRAREGKQFSSADEAALKEPIIKKFEEEGNPYYSSARVWDDGIIDPADTRLVLGLSFSAALNAPIEKTDFGIFRM
B4: SBP-Flag-ACOX2 (acyl-CoA oxidase 2) (enzyme, UniProt Q99424 1-681)
chain: T1 sequence
B5: methylcrotonoyl-CoA carboxylase subunit alpha (MCCA) (enzyme, UniProt Q96RQ3 42-725)
chain: TTATGRNITKVLIANRGEIACRVMRTAKKLGVQTVAVYSEADRNSMHVDMADEAYSIGPAPSQQSYLSMEKIIQVAKTSAAQAIHPGCGFLSENMEFAELCKQEGIIFIGPPPSAIRDMGIKSTSKSIMAAAGVPVVEGYHGEDQSDQCLKEHARRIGYPVMIKAVRGGGGKGMRIVRSEQEFQEQLESARREAKKSFNDDAMLIEKFVDTPRHVEVQVFGDHHGNAVYLFERDCSVQRRHQKIIEEAPAPGIKSEVRKKLGEAAVRAAKAVNYVGAGTVEFIMDSKHNFCFMEMNTRLQVEHPVTEMITGTDLVEWQLRIAAGEKIPLSQEEITLQGHAFEARIYAEDPSNNFMPVAGPLVHLSTPRADPSTRIETGVRQGDEVSVHYDPMIAKLVVWAADRQAALTKLRYSLRQYNIVGLHTNIDFLLNLSGHPEFEAGNVHTDFIPQHHKQLLLSRKAAAKESLCQAALGLILKEKAMTDTFTLQAHDQFSPFSSSSGRRLNISYTRNMTLKDGKNNVAIAVTYNHDGSYSMQIEDKTFQVLGNLYSEGDCTYLKCSVNGVASKAKLIILENTIYLFSKEGSIEIDIPVPKYLSSVSSQETQGGPLAPMTGTIEKVFVKAGDKVKAGDSLMVMIAMKMEHTIKSPKDGTVKKVFYREGAQANRHTPLVEFEEEESDKRESE

molecular target: T1, SBP-Flag-ACOX2 (acyl-CoA oxidase 2); test: affinity purification with mass spectrometry; TAP-MS: MHCC97H and HEK-293T cells (each analysed) transfected with pMCB-SBP-Flag-ACOX2; lysed in 0.1% NP40 buffer (20 mM Tris-HCl pH 8.0, 150 mM NaCl); lysate on streptavidin-conjugated beads 3 h at 4 °C; washed, tryptic digestion on beads, mass spectrometry

binding | Molecule
binds | DNA topoisomerase TOP2B (from UniProt Q02880 1-1626) (enzyme)
binds | acetyl-CoA carboxylase 2 (ACACB) (enzyme)
binds | B1
binds | B2
binds | B3
binds | B4
binds | B5
